Where “and” joins values, the source holds several entries; their conditions need not be identical. Equal entries are not always repeated. Out of some 2,000 compounds screened, about 45 (2%) were called active.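 The calls were made as follows: active = inhibition above the screen-wide mean inhibition plus 3 SD (cut at about 44% in these data); inactive = the rest.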 Some of the results follow.
target: Perilipin-1 (Homo sapiens) + 1-acylglycerol-3-phosphate O-acyltransferase ABHD5 (Homo sapiens) (UniProt O60240+Q8WTS1); assay: blockers of ABHD5 binding to perilipin-1 – cell lysate, split luciferase complementation, luminescence, NIH validation set, pilot screen (AID 493027);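 as to inhibition: 0% = DMSO wells with the 100% control not disclosed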; conditions: split G. princeps luciferase complementation, 4 h; at 7.9 µM, stronger effect = higher value

The chains behind the UniProt entries cited, without tags or fusion partners. Where a name states a change or a piece, a line headed by the entry shows the natural chain unless it says otherwise.
UniProt O60240: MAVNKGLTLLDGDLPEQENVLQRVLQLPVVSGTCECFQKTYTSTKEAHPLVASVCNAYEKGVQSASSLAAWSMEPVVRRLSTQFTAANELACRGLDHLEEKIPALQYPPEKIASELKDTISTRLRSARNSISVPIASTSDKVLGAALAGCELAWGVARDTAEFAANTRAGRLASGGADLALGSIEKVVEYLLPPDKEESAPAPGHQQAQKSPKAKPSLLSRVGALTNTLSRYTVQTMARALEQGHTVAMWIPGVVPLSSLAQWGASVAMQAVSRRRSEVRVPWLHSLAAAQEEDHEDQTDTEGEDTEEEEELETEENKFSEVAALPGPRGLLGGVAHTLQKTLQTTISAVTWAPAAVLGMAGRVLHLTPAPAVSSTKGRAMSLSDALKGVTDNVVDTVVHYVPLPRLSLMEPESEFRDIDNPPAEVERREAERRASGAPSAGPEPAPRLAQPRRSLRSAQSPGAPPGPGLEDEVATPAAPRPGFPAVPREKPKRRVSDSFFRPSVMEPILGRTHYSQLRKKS
UniProt Q8WTS1: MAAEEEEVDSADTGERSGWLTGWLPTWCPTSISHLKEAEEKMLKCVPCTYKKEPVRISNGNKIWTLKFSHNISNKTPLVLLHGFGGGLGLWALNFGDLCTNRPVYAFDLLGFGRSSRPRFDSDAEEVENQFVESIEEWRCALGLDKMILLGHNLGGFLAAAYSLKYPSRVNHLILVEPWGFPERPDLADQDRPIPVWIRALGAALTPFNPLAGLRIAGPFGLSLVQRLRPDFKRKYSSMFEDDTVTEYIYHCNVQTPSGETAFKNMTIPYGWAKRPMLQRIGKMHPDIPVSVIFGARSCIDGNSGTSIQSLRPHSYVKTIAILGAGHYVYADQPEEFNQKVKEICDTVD

| SMILES | inhibition |
| --- | --- |
| CCOC(=O)c1cnc2ccccc2c1NCCO | inactive: -7.16% |
| CN=C(NC#N)NCCSCc1nc[nH]c1C | inactive: -16.7% |
| CCC(C)NCCOCCOc1ccc(Cl)c2ccccc12 (stereo not given) | inactive: -7.14% |
| O=C(O)CCn1c(=S)n(CCC(=O)O)c2ccccc21 | inactive: 5.57% |
| CC1(CC(=O)Nc2ccccc2)NC(=S)N(c2ccccc2)N1 (stereo not given) | inactive: -8.06% |
| CCOC(=O)Nc1ccc2c(c1)N(C(=O)CCN1CCOCC1)c1ccccc1S2 | inactive: -5.86% |
| O=C(c1ccc(F)cc1)[C@@H]1[C@@H](C(=O)c2ccccc2)[C@@]2(C(=O)Nc3ccccc32)[C@H]2c3ccccc3C=CN12 | inactive: 12.4% |
| C#C[C@]1(O)CC[C@H]2[C@@H]3CCc4cc(OC)ccc4[C@H]3CC[C@@]21C | inactive: -4.5% |
| CC1=C(C)C(=O)C(CCCCC#CCCCC#CCO)=C(C)C1=O | inactive: 20.1% |
| O=C(O)/C=C/c1cccc(OCc2ccccc2)c1 | inactive: -13.6% |
| CCOCC(=O)Nc1ccccc1C(=O)N1CCOCC1 | inactive: 5.18% |
| O=C(CN1C(=O)c2ccccc2S1(=O)=O)Nc1ccccc1 | inactive: -4.41% |
| COc1cc2c(cc1OC)-c1nnc(C)n1C(C)(C)C2 | inactive: -2.21% |
| CCCCCCC(=O)N(O)C1CC(=O)N(Cc2ccccc2)C1=O (stereo not given) | inactive: 6.53% |
| c1coc(-c2nnc3n2C2(CCCC2)Cc2ccccc2-3)c1 | inactive: -0.37% |
| O=C(/C=C/c1ccco1)Nc1ccccc1C(=O)O | inactive: 8.22% |
| O=C(O)Cc1ccc(O)c(F)c1 | inactive: -5.2% |
| CC(C)CC(=O)NC(NC(=O)CC(C)C)c1cccc([N+](=O)[O-])c1 | inactive: -6.81% |
| O=C1CC(c2ccc(OCCCCCOc3ccc(C4CC(=O)NC4=O)cc3)cc2)C(=O)N1 (stereo not given) | inactive: 12.7% |
| O=C(c1ccc([N+](=O)[O-])cc1)N1CCSC1c1ccccc1Cl (stereo not given) | inactive: -8.21% |
| CC1(C)OC2OC(C(=O)N/N=C/c3ccccc3F)C3OC(C)(C)OC3C2O1 (stereo not given) | inactive: -9.24% |
| CN(C)CCCN1c2ccccc2CCc2ccc(Cl)cc21 | inactive: -10.6% |
| COc1ccc2nc(C)cc(Nc3ccccc3O)c2c1 | inactive: 10.9% |
| C=CCNc1nc2c(c(=O)n(C)c(=O)n2C)n1CC(=C)C | inactive: 2.69% |

| SMILES | inhibition |
| --- | --- |
| Clc1ccccc1CN1CCc2sccc2C1 | inactive: -5.49% |
| O=C(/C=C/c1ccccc1)NC(=O)c1ccccc1O | inactive: 4.79% |
| COc1cc2c(cc1O)CC[C@@H]1[C@@H]2CC[C@]2(C)[C@@H](O)CC[C@@H]12 | inactive: -3.48% |
| NS(=O)(=O)c1ccc(CCNC(=O)C2CCCN2C(=O)OCc2ccccc2)cc1 (stereo not given) | inactive: -15.1% |
| COC(=O)C1=C(C)NC(C)=C(C(=O)OC)C1c1ccccc1[N+](=O)[O-] | active |
| N/C(=N/OS(=O)(=O)c1ccc([N+](=O)[O-])cc1)c1ccncc1 | inactive: -18.7% |
| CC1(C(=O)O)CCC(C(=O)NC2CCCCCC2)C1(C)C (stereo not given) | inactive: -4.72% |
| CCNC(=S)N1CCN(CCN2C(=O)c3cccc4cccc(c34)C2=O)CC1 | inactive: 5.17% |
| CC(=O)c1cccc(NC(=O)N[C@@H](CC(C)C)C(=O)O)c1 | inactive: -3.15% |
| CCc1cc2c3c(c(=O)oc2cc1O)CCCC3 | inactive: 1.98% |
| O=c1[nH]cc(F)c(=O)[nH]1 | inactive: -12.6% |
| COc1ccc(O)c(C(=O)/C=C/c2cc3ccccc3o2)c1 | active: 66.9% |
| CCCCC[C@H](O)/C=C/[C@@H]1[C@@H](C/C=C\CCCC(=O)O)[C@H]2CO[C@@H]1C2 | inactive: -7.39% |
| Nc1ncnc2c1ncn2C1OC(CO)C(O)C1O (stereo not given) | inactive: -8.28% |
| CS(=O)(=O)Oc1ccc2c(c1)O/C(=C\C=C\c1ccccc1)C2=O | active: 58.8% |
| COc1cccc2cc(-c3ccccc3)c(=O)oc12 | inactive: -3.48% |
| COc1cc2nc(N3CCN(C(=O)C4CCCO4)CC3)nc(N)c2cc1OC (stereo not given) | inactive: 2.29% and inactive: -14.9% |
| C[C@H]1C[C@H]2[C@@H]3CCC4=CC(=O)C=C[C@]4(C)[C@@]3(Cl)[C@@H](O)C[C@]2(C)[C@@]1(O)C(=O)CO | inactive: 1.29% |
| Cn1cc(/C=C/C(=O)c2ccccc2)c2ccccc21 | inactive: 13.9% |
| COc1ccc(-c2c3c(=O)n(C)c(=O)n(C)c3cn2C2CCCCC2)cc1 | inactive: 6.04% |
| O=C(c1cc2cc(Br)ccc2o1)N1CCCC1 | inactive: -0.81% |
| CC(=O)[C@H]1CC[C@H]2[C@@H]3CCC4=CC(=O)CC[C@]4(C)[C@H]3[C@H](O)C[C@]12C | inactive: 2.83% |
| CC1(C)CC(C(CC(=O)O)c2ccccc2)CCO1 (stereo not given) | inactive: -9.35% |
| Cc1ccc(P(=O)(CSC(=N)N)c2ccc(C)cc2)cc1 | inactive: 6.44% |

| SMILES | inhibition |
| --- | --- |
| CC(C)OC(=O)CC12CN3CN(C1)CC(CC(=O)OC(C)C)(C3)C2=O | inactive: -2.21% |
| C[N+]12CCC(CC1)C(OC(=O)C(O)(c1ccccc1)c1ccccc1)C2 (stereo not given) | inactive: -9.73% |
| CC(=O)N1CCn2c3c(c4cc(C)ccc42)CCCC31 (stereo not given) | inactive: 8.46% |
| CSc1ccc(/C=N/N2CCN(Cc3ccc(C)cc3C)CC2)cc1 | inactive: -3.53% |
| C[C@H](NC(=O)Nc1ccccc1F)C(=O)O | inactive: -0.07% |
| COc1ccc2cc[nH]c2c1 | inactive: 4.17% |
| CC(=O)Oc1cc(C(C)C)c(OCCN(C)C)cc1C | inactive: -11.6% |
| CCc1cc(=O)oc2cc(OCc3nn[nH]n3)ccc12 | inactive: -2.66% |
| O=C(/C=C/c1c[nH]c2ccccc12)c1cccc2ccccc12 | inactive: 30.5% |
| COC1=CC(=O)CC(C)C12Oc1c(Cl)c(OC)cc(OC)c1C2=O (stereo not given) | inactive: -6.72% |
| CS(=O)(=O)Nc1cccc(C(=O)CC2(O)C(=O)Nc3ccc(Br)cc32)c1 (stereo not given) | inactive: -3.35% |
| O=C(N1CCCC1)C12CC3CC(C1)CC(C(=O)N1CCCC1)(C3)C2 | inactive: 3.37% |
| O=c1[nH]c(=O)n([C@H]2C[C@H](O)[C@@H](CO)O2)cc1F | inactive: -8.26% |
| NC(N)=N/N=C/c1c(Cl)cccc1Cl | inactive: 2.92% |
| CC(C)Cn1c(=S)[nH]c2cc(C(=O)O)ccc2c1=O | inactive: -8.2% |
| NS(=O)(=O)c1cc2c(cc1Cl)NCNS2(=O)=O | inactive: -5% |
| Cc1coc2cc3oc(=O)c(CCC(=O)O)c(C)c3cc12 | inactive: 1.17% |
| COc1cc(C)nc(-n2nc(C)cc2OC)n1 | inactive: -6.92% |
| CS(=O)(=O)Nc1ccc([N+](=O)[O-])cc1Oc1ccccc1 | inactive: 2.7% |
| CC(=O)[C@@]1(O)CC[C@H]2[C@@H]3CCC4=CC(=O)CC[C@]4(C)[C@H]3[C@@H](O)C[C@@]21C | inactive: 4.04% |
| COc1ccc(CN2CCCC(C(=O)c3ccc(Cl)cc3)C2)cc1Cn1cccn1 (stereo not given) | inactive: 4.96% |
| O=C(NCCO)c1ccc2[nH]c3ccccc3c2c1 | inactive: -4.98% |
| COC(=O)c1[nH]c2ccc(F)cc2c1NC(=O)C1=COCCO1 | inactive: -2.61% |
| CCOc1ccc(CC2c3cc(OCC)c(OCC)cc3CCN2C(=O)CN2CCN(C)CC2)cc1OCC (stereo not given) | inactive: -4.1% |

As a short view, three of the compounds above:

| SMILES | inhibition |
| --- | --- |
| COC1=CC(=O)CC(C)C12Oc1c(Cl)c(OC)cc(OC)c1C2=O (stereo not given) | inactive: -6.72% |
| CS(=O)(=O)Nc1cccc(C(=O)CC2(O)C(=O)Nc3ccc(Br)cc32)c1 (stereo not given) | inactive: -3.35% |
| O=C(N1CCCC1)C12CC3CC(C1)CC(C(=O)N1CCCC1)(C3)C2 | inactive: 3.37% |

Later entries

| SMILES | inhibition |
| --- | --- |
| COc1ccc2c(c1OC)C(C1c3c(cc4c(c3OC)OCO4)CCN1C)OC2=O (stereo not given) | inactive: -3.67% |
| Cc1ccc2c(c1)c(=O)c1c3n2CCN(C(=O)CCl)C3CC1 (stereo not given) | inactive: 19.3% |
| CCc1cc(C(N)=S)ccn1 | inactive: -8.89% |
| COc1cc(C(=O)OCCCN(C)C)cc(OC)c1OC | inactive: -4.53% |
| O=C(OCC1CCCN2CCCCC12)c1ccc2c(c1)OCO2 (stereo not given) | inactive: -3.41% |
| CC1(C)C(=O)OC(/C=C\c2ccccc2)C(C)(C)C1=O (stereo not given) | inactive: -0.3% |
| NC(=O)c1ncn([C@@H]2O[C@H](CO)[C@@H](O)[C@H]2O)c1O | inactive: 1.94% |
| COc1ccccc1-c1ccc(/C=C2/C=C(CC(C)C)OC2=O)o1 | inactive: 6.03% |
| COc1ccccc1/C=C/CN1CCN(Cc2ccc(F)cc2)C(CCO)C1 (stereo not given) | inactive: -5.19% |
| O=C(N/N=C/c1ccc([N+](=O)[O-])o1)c1ccc(O)cc1 | inactive: 3.07% |
| Cn1nc(-c2ccc(Cl)cc2)nc2c(=O)n(C)c(=O)nc1-2 | inactive: -2.2% |
| COc1ccc2c3c([nH]c2c1)C1(NCC3)C(=O)Nc2ccccc21 (stereo not given) | inactive: -3.76% |
| CCOc1ccc(NC2OC(C)C(O)C(O)C2O)c([N+](=O)[O-])c1 (stereo not given) | inactive: -3.67% |
| CC1(C)CC(O)(CNCc2ccc3c(c2)OCO3)CCO1 (stereo not given) | inactive: -11.9% |
| O=C(O)CCCN1C(=O)NC2NC(=O)NC21 (stereo not given) | inactive: -6.31% |
| Cc1ccc(/C(=C\CN2CCCC2)c2ccccn2)cc1 | inactive: -5.35% |
| O=C1C(Cc2ccccc2)NC(=S)N1c1ccccc1 (stereo not given) | inactive: -13.4% |
| O=C(c1ccccc1F)c1cc2c(cc1[N+](=O)[O-])OCCO2 | inactive: -4.46% |
| Cc1ccc(S(=O)(=O)NC(=O)Nc2cc(C)ccc2F)cc1 | inactive: -9.96% |
| O=C1OC(c2ccccc2)=C/C1=C/c1cccs1 | inactive: 1.27% |
| CC[C@]1(O)CC2CN(CCc3c([nH]c4ccccc34)[C@@](C(=O)OC)(c3cc4c(cc3OC)N(C=O)[C@H]3[C@@](O)(C(=O)OC)[C@H](OC(C)=O)[C@]5(CC)C=CCN6CC[C@]43[C@@H]65)C2)C1 (stereo not given in full) | inactive: 4.83% |
| CNCCC=C1c2ccccc2CCc2ccccc21 | inactive: -10.4% |
| CN1CCC(=C2c3ccccc3C=Cc3ccccc32)CC1 | inactive: 6.02% |

From PubChem BioAssay AID493027 (The Scripps Research Institute Molecular Screening Center, 2011)
